These are yes or no findings as the source states them, for the method shown. In cells and extracts the contact can be indirect. Some entries that bind do so weakly or less than the wild type.

Sequences of proteins named here, by UniProt entry; tags and fusion partners are left off.
UniProt Q9UM11: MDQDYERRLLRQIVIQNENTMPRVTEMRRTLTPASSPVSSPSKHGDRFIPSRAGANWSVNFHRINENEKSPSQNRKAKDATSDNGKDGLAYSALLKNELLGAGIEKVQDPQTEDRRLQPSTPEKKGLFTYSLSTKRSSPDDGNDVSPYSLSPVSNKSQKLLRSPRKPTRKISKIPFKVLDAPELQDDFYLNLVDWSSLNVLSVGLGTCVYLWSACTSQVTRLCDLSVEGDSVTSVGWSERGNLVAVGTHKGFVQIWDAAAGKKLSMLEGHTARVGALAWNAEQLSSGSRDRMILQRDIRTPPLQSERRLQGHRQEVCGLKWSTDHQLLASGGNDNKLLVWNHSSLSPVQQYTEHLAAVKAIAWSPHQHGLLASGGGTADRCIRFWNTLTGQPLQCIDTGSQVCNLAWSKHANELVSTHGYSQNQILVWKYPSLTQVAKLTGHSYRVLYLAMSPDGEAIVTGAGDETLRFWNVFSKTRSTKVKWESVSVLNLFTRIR
UniProt Q96GD4: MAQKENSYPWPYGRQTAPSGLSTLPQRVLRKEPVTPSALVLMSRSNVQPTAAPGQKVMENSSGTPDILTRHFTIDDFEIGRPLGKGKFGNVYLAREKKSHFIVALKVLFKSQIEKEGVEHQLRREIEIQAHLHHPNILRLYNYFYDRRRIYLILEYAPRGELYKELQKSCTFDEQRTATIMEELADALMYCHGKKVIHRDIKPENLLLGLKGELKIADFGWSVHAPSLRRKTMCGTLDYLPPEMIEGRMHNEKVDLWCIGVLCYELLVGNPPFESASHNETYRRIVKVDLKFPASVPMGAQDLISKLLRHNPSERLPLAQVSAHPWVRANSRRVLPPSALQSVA

Binding data for 1 substance are collected here from PMC5814453.

The assay deals with HA-CDH1 (UniProt Q9UM11). In words: co-IP; HEK293T cells co-transfected with both tagged proteins for 24 h; about 3 mg lysate (50 mM Tris-HCl, 150 mM NaCl, 1% Triton X-100, 1 mM EDTA, pH 7.5) with Flag-agarose or HA-agarose beads, 4 h at 4 °C; immunoblot.

Turning to “Myc-Aurora B (from UniProt Q96GD4 1-344) (enzyme)”, the binding result is reported as “binds”.
